The list does not hold the whole screen: it is rich in T/C values a quarter to a half above the control, in often repeated tests (any T/C) and in doses without a T/C. Other doses and runs of a compound stand elsewhere. T/C: endpoint of the treated group in % of that of the vehicle group. Some entries give survivors of the animals treated and no T/C: the source files T/C as zero there, which appears to mark a toxic dose or a test without result, not a measured value. Some survivor counts are full or nearly so, which does not show that the dose was tolerated: the source hardly ever lists a survival T/C far under the control, and the zero likely stands for such cases as well. Survivors were counted at the toxicity check, usually on the fifth day, unless a day is given; later deaths do not show. Schedule codes are those of the source, taken here to give the interval after Q, in days (D) or hours (H), and the number of doses after X. Where survival is the endpoint, the PubChem record calls one and a half times the control and up active, and a quarter to a half above the control has no call in these data; cut-offs in other NCI protocols can differ. Some T/C values carry the count of animals alive at the toxicity check (mostly the fifth day); without a count, all were alive then. Some entries hold several experiments; the results are listed from low to high. Marks such as (2×) give the number of equal values in this list. Some schedule codes hold Z or #, which are not explained here.
System: L1210 leukemia ip in BDF1 mice, survival T/C
Assay: NCI In Vivo Anticancer Drug Screen. Data for tumor model L1210 Leukemia (intraperitoneal) in B6D2F1 (BDF1) mice
Conditions: T/C endpoint: mean survival time, higher T/C = longer survival

## CC(CN1CC(=O)NC(=O)C1)N1CC(=O)NC(=O)C1 (stereo unspecified)
dose: 6.25 mg/kg/injection, schedule: Q01DX009 (oral), vehicle: steroid suspending solution
  T/C: 125 % of control
dose: 6.25 mg/kg/injection, schedule: Q03HX024 (oral), vehicle: steroid suspending solution
  T/C: 147 % of control
dose: 6.25 mg/kg/injection, schedule: Q06HX012 (oral), vehicle: steroid suspending solution
  T/C: 135 % of control
dose: 6.3 mg/kg/injection, schedule: Q03HX016 (oral), vehicle: steroid suspending solution
  T/C: 146 % of control
dose: 8.0 mg/kg/injection, schedule: Q01DX009 (ip), vehicle: saline with Tween-80
  T/C: 128 % of control
dose: 12.5 mg/kg/injection, schedule: Q01DX009 (ip), vehicle: steroid suspending solution, evaluated on day 33
  T/C: 144 % of control
dose: 12.5 mg/kg/injection, schedule: Q01DX009 (ip), vehicle: steroid suspending solution, evaluated on day 60
  T/C: 139 % of control
dose: 12.5 mg/kg/injection, schedule: Q01DX009 (oral), vehicle: steroid suspending solution
  T/C: 137 % of control
dose: 12.5 mg/kg/injection, schedule: Q03HX008 (ip), vehicle: steroid suspending solution
  T/C: 133 % of control
dose: 12.5 mg/kg/injection, schedule: Q03HX016 (oral), vehicle: steroid suspending solution
  T/C: 146 % of control
dose: 15.0 mg/kg/injection, schedule: Q01DX009 (ip), vehicle: saline with Tween-80
  T/C: 138 % of control
dose: 16.0 mg/kg/injection, schedule: Q01DX009 (ip), vehicle: saline with Tween-80
  T/C: 125 % of control
dose: 25.0 mg/kg/injection, schedule: Q01DX009 (sc), vehicle: steroid suspending solution
  T/C: 132 % of control
dose: 25.0 mg/kg/injection, schedule: Q01DX Z (ip), vehicle: steroid suspending solution
  T/C: 149 % of control
dose: 25.0 mg/kg/injection, schedule: Q03HX024 (oral), vehicle: steroid suspending solution
  survivor count: 6 of 8
dose: 30.0 mg/kg/injection, schedule: Q01DX009 (ip), vehicle: saline with Tween-80
  T/C: 143 % of control
dose: 32.0 mg/kg/injection, schedule: Q04DX003 (oral), vehicle: saline with Tween-80
  T/C: 130 % of control
dose: 50.0 mg/kg/injection, schedule: Q01DX009 (ip), vehicle: steroid suspending solution
  T/C: 133 % of control
dose: 50.0 mg/kg/injection, schedule: Q03HX016 (oral), vehicle: steroid suspending solution
  survivor count: 8 of 8
dose: 50.0 mg/kg/injection, schedule: Q03HX024 (oral), vehicle: steroid suspending solution
  survivor count: 8 of 8
dose: 50.0 mg/kg/injection, schedule: Q04DX003 (ip), vehicle: Klucel (hydroxypropylcellulose) (HPC), evaluated on day 5
  T/C: 110 and 120 % of control
dose: 50.0 mg/kg/injection, schedule: Q04DX003 (ip), vehicle: Klucel (hydroxypropylcellulose) (HPC), evaluated on day 30
  T/C: 110, 112, 113, 114, 120 % of control
dose: 50.0 mg/kg/injection, schedule: Q04DX003 (ip), vehicle: Klucel (hydroxypropylcellulose) (HPC), evaluated on day 60
  T/C: 107, 115, 116, 120 % of control
dose: 50.0 mg/kg/injection, schedule: Q04DX003 (ip), vehicle: saline with Tween-80, evaluated on day 20
  T/C: 110 % of control
dose: 50.0 mg/kg/injection, schedule: Q04DX003 (ip), vehicle: saline with Tween-80, evaluated on day 30
  T/C: 111 % of control
dose: 50.0 mg/kg/injection, schedule: Q04DX003 (ip), vehicle: saline with Tween-80, evaluated on day 60
  T/C: 112 and 123 % of control
dose: 50.0 mg/kg/injection, schedule: Q04DX003 (ip), vehicle: saline, evaluated on day 30
  T/C: 95 [5 of 6 alive], 100 [5 of 6 alive], 108, 110 (2×), 116 % of control
dose: 50.0 mg/kg/injection, schedule: Q04DX003 (ip), vehicle: saline, evaluated on day 60
  T/C: 115 % of control
dose: 50.0 mg/kg/injection, schedule: Q04DX003 (ip), vehicle: steroid suspending solution
  T/C: 126 % of control
dose: 50.0 mg/kg/injection, schedule: Q04DX003 (ip), vehicle: water, evaluated on day 5
  T/C: 119 (2×) and 120 % of control
dose: 50.0 mg/kg/injection, schedule: Q04DX003 (ip), vehicle: water, evaluated on day 30
  T/C: 116 % of control
dose: 50.0 mg/kg/injection, schedule: Q04DX003 (ip), vehicle: water, evaluated on day 60
  T/C: 104 and 119 % of control
dose: 50.0 mg/kg/injection, schedule: Q04DX003 (oral), vehicle: steroid suspending solution
  T/C: 139 % of control
dose: 100.0 mg/kg/injection, schedule: Q01DX001 (ip), vehicle: steroid suspending solution, evaluated on day 33
  T/C: 127 % of control
dose: 100.0 mg/kg/injection, schedule: Q01DX001 (ip), vehicle: steroid suspending solution, evaluated on day 60
  T/C: 135 % of control
dose: 100.0 mg/kg/injection, schedule: Q01DX009 (ip), vehicle: steroid suspending solution
  T/C: 144 % of control
dose: 100.0 mg/kg/injection, schedule: Q01DX009 (sc), vehicle: steroid suspending solution
  T/C: 139 % of control
dose: 100.0 mg/kg/injection, schedule: Q03HX016 (ip), vehicle: steroid suspending solution
  T/C: 127 % of control [6 of 8 alive]
dose: 100.0 mg/kg/injection, schedule: Q03HX016 (oral), vehicle: steroid suspending solution
  survivor count: 6 of 8
dose: 100.0 mg/kg/injection, schedule: Q03HX024 (ip), vehicle: steroid suspending solution
  survivor count: 7 of 8
dose: 100.0 mg/kg/injection, schedule: Q03HX024 (oral), vehicle: steroid suspending solution
  survivor count: 7 of 8
dose: 100.0 mg/kg/injection, schedule: Q04DX003 (ip), vehicle: Klucel (hydroxypropylcellulose) (HPC), evaluated on day 5
  T/C: 132, 134, 160 % of control
dose: 100.0 mg/kg/injection, schedule: Q04DX003 (ip), vehicle: Klucel (hydroxypropylcellulose) (HPC), evaluated on day 30
  T/C: 115, 119 (2×), 120, 124 % of control
dose: 100.0 mg/kg/injection, schedule: Q04DX003 (ip), vehicle: Klucel (hydroxypropylcellulose) (HPC), evaluated on day 60
  T/C: 128, 130, 132, 141, 160 % of control
dose: 100.0 mg/kg/injection, schedule: Q04DX003 (ip), vehicle: saline with Tween-80, evaluated on day 20
  T/C: 119 % of control
dose: 100.0 mg/kg/injection, schedule: Q04DX003 (ip), vehicle: saline with Tween-80, evaluated on day 30
  T/C: 120 % of control
dose: 100.0 mg/kg/injection, schedule: Q04DX003 (ip), vehicle: saline with Tween-80, evaluated on day 60
  T/C: 110 and 129 % of control
dose: 100.0 mg/kg/injection, schedule: Q04DX003 (ip), vehicle: saline, evaluated on day 30
  T/C: 97 [5 of 6 alive], 107, 113, 120, 126, 136 % of control
dose: 100.0 mg/kg/injection, schedule: Q04DX003 (ip), vehicle: saline, evaluated on day 60
  T/C: 231 % of control
dose: 100.0 mg/kg/injection, schedule: Q04DX003 (ip), vehicle: steroid suspending solution
  T/C: 145 % of control
dose: 100.0 mg/kg/injection, schedule: Q04DX003 (ip), vehicle: water, evaluated on day 5
  T/C: 108, 122, 168 % of control
dose: 100.0 mg/kg/injection, schedule: Q04DX003 (ip), vehicle: water, evaluated on day 30
  T/C: 114 % of control
dose: 100.0 mg/kg/injection, schedule: Q04DX003 (ip), vehicle: water, evaluated on day 60
  T/C: 165 and 168 % of control
dose: 100.0 mg/kg/injection, schedule: Q04DX003 (oral), vehicle: steroid suspending solution
  T/C: 147 % of control
dose: 100.0 mg/kg/injection, schedule: Q06HX012 (oral), vehicle: steroid suspending solution
  survivor count: 8 of 8
dose: 128.0 mg/kg/injection, schedule: Q04DX003 (ip), vehicle: saline with Tween-80
  T/C: 127 % of control
dose: 176.0 mg/kg/injection, schedule: Q01DX001 (ip), vehicle: saline
  T/C: 128 % of control
dose: 200.0 mg/kg/injection, schedule: Q01DX001 (ip), vehicle: steroid suspending solution
  T/C: 148 % of control
dose: 200.0 mg/kg/injection, schedule: Q04DX003 (ip), vehicle: Klucel (hydroxypropylcellulose) (HPC), evaluated on day 5
  T/C: 168, 223, 227 % of control
dose: 200.0 mg/kg/injection, schedule: Q04DX003 (ip), vehicle: Klucel (hydroxypropylcellulose) (HPC), evaluated on day 30
  T/C: 117, 124, 129, 141 [5 of 6 alive], 148 % of control
dose: 200.0 mg/kg/injection, schedule: Q04DX003 (ip), vehicle: Klucel (hydroxypropylcellulose) (HPC), evaluated on day 60
  T/C: 176, 223, 248, 251, 287 % of control

From PubChem BioAssay AID248 (DTP/NCI, 2004)
